No constants are given. Whether binding was seen depends on the method and setting. For part of these data: In cells and extracts the contact can be indirect.
How the values were obtained:
[1] = target: T1, c-Raf-derived phosphopeptide pSRaf259 (biotin-…pSTPN) (human); experiment: SPR; both purified
T1 sequence (peptide, biotin on the N-terminus; phosphoserine at 259Ser (residue 11 of the peptide)): MAGGGRQRSTSTPN

[2] = target: T1, c-Raf-derived phosphopeptide pSRaf259 (biotin-…pSTPN) (human); experiment: pull-down; only the target purified
[3] = target: T2, pRaf259 (biotin-…), 259Ser unphosphorylated (human); experiment: pull-down; only the target purified
T2 sequence (peptide, biotin on the N-terminus): MAGGGRQRSTSTPN

Substance: GST-14-3-3II (T. brucei 14-3-3II fused to glutathione S-transferase)
- binding [1]: no binding (tested: 200 nM)

Substance: endogenous T. brucei 14-3-3I
- binding [2]: no binding
- binding [3]: no binding
